According to patent US8378085B2, “Bacterial ATP synthase binding domain” (priority 2004, dated 2013):

Tested on: M. smegmatis
Format: cell-based, Mycobacterium smegmatis

SMILES: COc1nc2ccc(Br)cc2cc1[C@@H](c1ccccc1)[C@@](O)(CCN(C)C)c1cccc2ccccc12 [J]
- proportion of mutants with reduced sensitivity (MIC×4): 2×10^−8
- proportion of mutants with reduced sensitivity (MIC×8): 1×10^−8

Where two headings read alike, the source gives them in different places.
